# Data from paper PMC10323252.
# Protein sequences, listed by entry. Tags and fused reporters are not part of them.
# UniProt P62491: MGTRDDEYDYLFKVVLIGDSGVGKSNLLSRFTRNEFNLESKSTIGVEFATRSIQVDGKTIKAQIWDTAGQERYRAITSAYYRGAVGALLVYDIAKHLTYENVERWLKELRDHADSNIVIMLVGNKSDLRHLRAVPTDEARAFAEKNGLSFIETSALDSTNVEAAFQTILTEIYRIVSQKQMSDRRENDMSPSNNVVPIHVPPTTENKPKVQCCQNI
# B1: VPS45 (protein, UniProt Q9NRW7 1-570)
# chain: MNVVFAVKQYISKMIEDSGPGMKVLLMDKETTGIVSMVYTQSEILQKEVYLFERIDSQNREIMKHLKAICFLRPTKENVDYIIQELRRPKYTIYFIYFSNVISKSDVKSLAEADEQEVVAEVQEFYGDYIAVNPHLFSLNILGCCQGRNWDPAQLSRTTQGLTALLLSLKKCPMIRYQLSSEAAKRLAECVKQVITKEYELFEFRRTEVPPLLLILDRCDDAITPLLNQWTYQAMVHELLGINNNRIDLSRVPGISKDLREVVLSAENDEFYANNMYLNFAEIGSNIKNLMEDFQKKKPKEQQKLESIADMKAFVENYPQFKKMSGTVSKHVTVVGELSRLVSERNLLEVSEVEQELACQNDHSSALQNIKRLLQNPKVTEFDAARLVMLYALHYERHSSNSLPGLMMDLRNKGVSEKYRKLVSAVVEYGGKRVRGSDLFSPKDAVAITKQFLKGLKGVENVYTQHQPFLHETLDHLIKGRLKENLYPYLGPSTLRDRPQDIIVFVIGGATYEEALTVYNLNRTTPGVRIVLGGTTVHNTKSFLEEVLASGLHSRSKESSQVTSRSASRR
# B2: ARHGAP18 (protein, UniProt Q8N392 1-663)
# chain: MSWLSSSQGVVLTAYHPSGKDQTVGNSHAKAGEEATSSRRYGQYTMNQESTTIKVMEKPPFDRSISQDSLDELSMEDYWIELENIKKSSENSQEDQEVVVVKEPDEGELEEEWLKEAGLSNLFGESAGDPQESIVFLSTLTRTQAAAVQKRVETVSQTLRKKNKQYQIPDVRDIFAQQRESKETAPGGTESQSLRTNENKYQGRDDEASNLVGEEKLIPPEETPAPETDINLEVSFAEQALNQKESSKEKIQKSKGDDATLPSFRLPKDKTGTTRIGDLAPQDMKKVCHLALIELTALYDVLGIELKQQKAVKIKTKDSGLFCVPLTALLEQDQRKVPGMRIPLIFQKLISRIEERGLETEGLLRIPGAAIRIKNLCQELEAKFYEGTFNWESVKQHDAASLLKLFIRELPQPLLSVEYLKAFQAVQNLPTKKQQLQALNLLVILLPDANRDTLKALLEFLQRVIDNKEKNKMTVMNVAMVMAPNLFMCHALGLKSSEQREFVMAAGTANTMHLLIKYQKLLWTIPKFIVNQVRKQNTENHKKDKRAMKKLLKKMAYDREKYEKQDKSTNDADVPQGVIRVQAPHLSKVSMAIQLTEELKASDVLARFLSQESGVAQTLKKGEVFLYEIGGNIGERCLDDDTYMKDLYQLNPNAEWVIKSKPL
# B3: RABEP1 (protein, UniProt Q15276 1-862)
# chain: MAQPGPASQPDVSLQQRVAELEKINAEFLRAQQQLEQEFNQKRAKFKELYLAKEEDLKRQNAVLQAAQDDLGHLRTQLWEAQAEMENIKAIATVSENTKQEAIDEVKRQWREEVASLQAVMKETVRDYEHQFHLRLEQERTQWAQYRESAEREIADLRRRLSEGQEEENLENEMKKAQEDAEKLRSVVMPMEKEIAALKDKLTEAEDKIKELEASKVKELNHYLEAEKSCRTDLEMYVAVLNTQKSVLQEDAEKLRKELHEVCHLLEQERQQHNQLKHTWQKANDQFLESQRLLMRDMQRMEIVLTSEQLRQVEELKKKDQEDDEQQRLNKRKDHKKADVEEEIKIPVVCALTQEESSAQLSNEEEHLDSTRGSVHSLDAGLLLPSGDPFSKSDNDMFKDGLRRAQSTDSLGTSGSLQSKALGYNYKAKSAGNLDESDFGPLVGADSVSENFDTASLGSLQMPSGFMLTKDQERAIKAMTPEQEETASLLSSVTQGMESAYVSPSGYRLVSETEWNLLQKEVHNAGNKLGRRCDMCSNYEKQLQGIQIQEAETRDQVKKLQLMLRQANDQLEKTMKDKQELEDFIKQSSEDSSHQISALVLRAQASEILLEELQQGLSQAKRDVQEQMAVLMQSREQVSEELVRLQKDNDSLQGKHSLHVSLQQAEDFILPDTTEALRELVLKYREDIINVRTAADHVEEKLKAEILFLKEQIQAEQCLKENLEETLQLEIENCKEEIASISSLKAELERIKVEKGQLESTLREKSQQLESLQEIKISLEEQLKKETAAKATVEQLMFEEKNKAQRLQTELDVSEQVQRDFVKLSQTLQVQLERIRQADSLERIRAILNDTKLTDINQLPET
# Target: mycBirA*–Rab11a (UniProt P62491)
# Assay: proximity labelling; BioID: A2780 cells stably expressing mycBirA*-Rab baits (mycBirA* alone as control), 1 uM biotin for 16 h; lysis in 0.4% SDS, 500 mM NaCl buffer; streptavidin microspheres; LC-MS/MS with label-free quantification, four replicates; high-confidence list by SAINTexpress (BFDR<=0.05), longlist by >2-fold enrichment; biotin-modified peptides also scored
row,binding,Binder
1,binds,B1
2,binds,B2
3,binds,B3

# Results are given in words; binding and its absence hold for the method and conditions named. In cells and extracts the contact can be indirect. These calls come from enrichment with a bait or labelling near it, and not all partners need be listed.
